{"source": "PubChem BioAssay AID1671195 – Yale University, 2021", "assay": "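Knockdowns that increase or decrease uptake of fluorescent LDL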 (primary screen)", "cell system": "human Huh7 hepatoma cells", "reagents": "siRNA pool against human genes, 18 nM", "timing": "about 2 to 2.5 days of knockdown, then 8 h LDL uptake", "treatment": "DiI-labelled LDL at 30 µg/ml for 8 h, in lipoprotein-deficient serum medium", "detection": "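Per-cell DiI-LDL intensity by automated imaging; well means scaled to the plate median and given as a robust z-score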", "reading the numbers": "robust z-score: higher = more LDL uptake after knockdown", "rule for the call": "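Active when two or more replicates show a robust z-score above 2 or below -2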", "note": "In all, the deposit lists about 22,000 reagents; shown is an unselected part. About 1,510 of all reagents (6.9%) count as active. 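Active includes knockdowns raising or lowering LDL uptake; positive z-scores mean more uptake, negative mean less.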 Reagent sequences are not shown."}
{"gene": "RCN2", "robust z-score, replicate 1": 0.925, "robust z-score, replicate 2": 0.895, "robust z-score, replicate 3": 1.03, "call": "inactive"}
{"gene": "BBX", "robust z-score, replicate 1": -0.809, "robust z-score, replicate 2": -0.88, "robust z-score, replicate 3": -0.894, "call": "inactive"}
{"gene": "SYT11", "robust z-score, replicate 1": -1.57, "robust z-score, replicate 2": -1.79, "robust z-score, replicate 3": -1.12, "call": "inactive"}
{"gene": "MOB4", "robust z-score, replicate 1": 0.0812, "robust z-score, replicate 2": -0.0706, "robust z-score, replicate 3": 0.00614, "call": "inactive"}
{"gene": "FAM174A", "robust z-score, replicate 1": 0.295, "robust z-score, replicate 2": 0.297, "robust z-score, replicate 3": 0.309, "call": "inactive"}
{"gene": "CHRNG", "robust z-score, replicate 1": -1.59, "robust z-score, replicate 2": -1.77, "robust z-score, replicate 3": -1.61, "call": "inactive"}
{"gene": "WSCD1", "robust z-score, replicate 1": 0.256, "robust z-score, replicate 2": 1.55, "robust z-score, replicate 3": 0.741, "call": "inactive"}

Laid out differently: 2 of the entries above
{"gene":"MOB4","robust z-score, replicate 1":0.0812,"robust z-score, replicate 2":-0.0706,"robust z-score, replicate 3":0.00614,"call":"inactive"}
{"gene":"FAM174A","robust z-score, replicate 1":0.295,"robust z-score, replicate 2":0.297,"robust z-score, replicate 3":0.309,"call":"inactive"}

Further reagents follow.
{"gene": "SERPINB12", "robust z-score, replicate 1": 1.92, "robust z-score, replicate 2": 0.279, "robust z-score, replicate 3": 1.46, "call": "inactive"}
{"gene": "SELL", "robust z-score, replicate 1": -0.961, "robust z-score, replicate 2": -1.52, "robust z-score, replicate 3": -1.23, "call": "inactive"}
{"gene": "JPH1", "robust z-score, replicate 1": -0.729, "robust z-score, replicate 2": 0.19, "robust z-score, replicate 3": 0.503, "call": "inactive"}
{"gene": "LINC00965", "robust z-score, replicate 1": 2.66, "robust z-score, replicate 2": 2.32, "robust z-score, replicate 3": 2.49, "call": "active"}
{"gene": "MYH15", "robust z-score, replicate 1": -0.932, "robust z-score, replicate 2": -0.771, "robust z-score, replicate 3": -1.57, "call": "inactive"}
{"gene": "OR51T1", "robust z-score, replicate 1": -1.18, "robust z-score, replicate 2": -1.47, "robust z-score, replicate 3": -1.54, "call": "inactive"}
{"gene": "PABIR3", "robust z-score, replicate 1": -0.299, "robust z-score, replicate 2": -0.597, "robust z-score, replicate 3": 0.222, "call": "inactive"}
{"gene": "LOC442275 (retired record)", "robust z-score, replicate 1": 1.25, "robust z-score, replicate 2": -0.14, "robust z-score, replicate 3": 0.575, "call": "inactive"}
{"gene": "LOC339274 (retired record)", "robust z-score, replicate 1": 3.09, "robust z-score, replicate 2": 3.11, "robust z-score, replicate 3": 3.67, "call": "active"}
